Reference: US20080261892A1 (priority 2005, published 2008)

Key:
[1] = general procedure: Fmoc solid-phase peptide synthesis; Rink Amide AM resin (Novabiochem); HBTU/HOBt/NMM; settings: for final HPLC purity: analytical HPLC, detection at 220 nm
[2] = general procedure: Fmoc solid-phase peptide synthesis; Rink Amide AM; HBTU/HOBt/NMM; settings: whole synthesis, scale 2 grams of Rink Amide AM resin (loading: 0.63 mmol/g), TFA salt

In the case of “Ac-Pro-His-Ser-Cys-Asn-NH2 (PHSCN; N-acetyl, C-amide; Fibronectin derivative (Anti-angiogenesis peptide))”, the step yield ([1]; late stage modification step, D-(+)-camphorsulfonic acid salt) is reported as 100%, the step yield ([1]; late stage modification step, acetic acid salt) is reported as 87% and the “final HPLC purity” value ([1]; late stage modification step, free base) is reported as 94% monomer. It also gave a step yield ([1]; late stage modification step, free base, run 1) of 69%, a step yield ([1]; late stage modification step, free base, run 2) of 49% and a step yield ([1]; late stage modification step, glycolic acid salt) of 99%. The step yield ([1]; late stage modification step, phosphoric acid salt) was 105%, the step yield ([1]; late stage modification step, sulfuric acid salt) was 92% and the “final HPLC purity” value ([1]; whole synthesis, scale of the general procedure 2 grams of Rink Amide AM resin (loading: 0.63 mmol/g), TFA salt) was 99%. It also gave a crude mass [2] of 708 mg.

For “Ac-Pro-His-Ser-Cys-Asn-NH2 Methanesulfonic Acid Salt (PHSCN; N-acetyl, C-amide, methanesulfonate salt; printed: Pro-His-Ser-Cys-Asn-)”, the step yield ([1]; late stage modification step, methanesulfonic acid salt) was 98%.

In the case of “Ac-Pro-His-Ser-Cys-Asn-NH2, hydrochloride salt (PHSCN; N-acetyl, C-amide, hydrochloride salt; printed: Pro-His-Ser-Cys-Asn-)”, the “final HPLC purity” value ([1]; late stage modification step, hydrochloride salt) is reported as 93% monomer.
